Experimental data reported in patent publication EP4772525A1, “PEPTIDE HAVING ACTIVITY OF IMPROVING SKIN CONDITION AND USES THEREOF” (Caregen Co., Ltd., priority 2023, dated 2026).
Part of at least one peptide drawing is inferred or uncertain, most often the ends. Where no end group is shown, it is not given here.

Columns and labels:
Format in all cases: cell-based, mouse
elastin [1] = assay: Expression of extracellular matrix component genes (RT-PCR); settings: NIH3T3 cells; peptide at 10 µM, 50 µM, and 100 µM; 24 hours; FIG. 1
smad7 = assay: Restoration of TGF-β/TGFR signaling pathway inhibited by UV irradiation (Western blot); settings: NIH3T3 cells; UVA at 4 J/cm^2; peptide at 10 µM, 50 µM, and 100 µM; 5 hours after irradiation; FIG. 4
fibronectin [2] = assay: Restoration of expression of extracellular matrix genes reduced by UV irradiation (RT-PCR); settings: NIH3T3 cells; UVA at 4 J/cm^2; peptide at 10 µM, 50 µM, and 100 µM; 6 hours after irradiation; FIG. 3
MMP-2 = assay: Inhibition of UV-induced MMP-2 expression (Western blot); settings: NIH3T3 cells; UVA at 4 J/cm^2; peptide at 10 µM, 50 µM, and 100 µM; 24 hours after irradiation; FIG. 5
cleaved PARP = assay: Inhibition of UV-induced expression of apoptosis proteins (Western blot); settings: NIH3T3 cells; UVA at 4 J/cm^2; peptide at 10 µM, 50 µM, and 100 µM; 24 hours after irradiation; FIG. 2
fibronectin [3] = assay: Expression of extracellular matrix component genes (RT-PCR); settings: NIH3T3 cells; peptide at 10 µM, 50 µM, and 100 µM; 24 hours; FIG. 1
phospho-smad2/3 = assay: Restoration of TGF-β/TGFR signaling pathway inhibited by UV irradiation (Western blot); settings: NIH3T3 cells; UVA at 4 J/cm^2; peptide at 10 µM, 50 µM, and 100 µM; 5 hours after irradiation; FIG. 4
elastin [4] = assay: Restoration of expression of extracellular matrix genes reduced by UV irradiation (RT-PCR); settings: NIH3T3 cells; UVA at 4 J/cm^2; peptide at 10 µM, 50 µM, and 100 µM; 6 hours after irradiation; FIG. 3
Bax = assay: Inhibition of UV-induced expression of apoptosis proteins (Western blot); settings: NIH3T3 cells; UVA at 4 J/cm^2; peptide at 10 µM, 50 µM, and 100 µM; 24 hours after irradiation; FIG. 2
cleaved caspase-3 = assay: as above; settings: NIH3T3 cells; UVA at 4 J/cm^2; peptide at 10 µM, 50 µM, and 100 µM; 24 hours after irradiation; FIG. 2
collagen Iα1 [5] = assay: Restoration of expression of extracellular matrix genes reduced by UV irradiation (RT-PCR); settings: NIH3T3 cells; UVA at 4 J/cm^2; peptide at 10 µM, 50 µM, and 100 µM; 6 hours after irradiation; FIG. 3
TSP-1 = assay: Restoration of TGF-β/TGFR signaling pathway inhibited by UV irradiation (Western blot); settings: NIH3T3 cells; UVA at 4 J/cm^2; peptide at 10 µM, 50 µM, and 100 µM; 5 hours after irradiation; FIG. 4
collagen Iα1 [6] = assay: Expression of extracellular matrix component genes (RT-PCR); settings: NIH3T3 cells; peptide at 10 µM, 50 µM, and 100 µM; 24 hours; FIG. 1

GWGDPIRL [peptide of SEQ ID NO: 1, GWGDPIRL]
mRNA expression level of elastin gene (elastin [1]): increased
expression level of smad7 proteins increased by UV irradiation (smad7): reduced again
mRNA expression level of fibronectin gene reduced by UV irradiation (fibronectin [2]): increased again
MMP-2 expression induced by UV irradiation (MMP-2): inhibited an increase in MMP-2 expression
expression level of cleaved PARP increased by UV irradiation (cleaved PARP): reduced again
mRNA expression level of fibronectin gene (fibronectin [3]): increased
expression level of phospho-smad2/3 protein reduced by UV irradiation (phospho-smad2/3): increased again
mRNA expression level of elastin gene reduced by UV irradiation (elastin [4]): increased again
expression level of Bax increased by UV irradiation (Bax): reduced again
expression level of cleaved caspase-3 increased by UV irradiation (cleaved caspase-3): reduced again
mRNA expression level of collagen Iα1 gene reduced by UV irradiation (collagen Iα1 [5]): increased again
expression level of TSP-1 reduced by UV irradiation (TSP-1): increased again
mRNA expression level of collagen Iα1 gene (collagen Iα1 [6]): increased
